Experimental data reported in patent US20100040552A1, “METHODS TO EVALUATE GLUCOCORTICOID RECEPTOR AGONISTS AND ANTAGONISTS FOR EFFECTS ON NEURON-LIKE CELLS” (ROSETTA INPHARMATICS LLC, priority 2005, published 2010).
At least one compound was matched to its structure with a doubt left.

Assays:
[1] = tested on: RGS2, RGS4 and Sult1a1 gene expression; experiment: In vivo RT-PCR of rat caudate and raphe nucleus (Example 1)
Text: Cross-hatched bars represent RGS2 gene expression. Unhatched bars represent RGS4 gene expression. ** p=0.003. * p=0.001.
Cross-hatched bars represent Sult1a1 gene expression in the caudate nucleus. Unhatched bars represent Sult1a1 gene expression in the raphe nucleus. *p<0.001.

Sult1a1 = experiment: In vivo Sult1a1 expression assay (Example 2); set-up: species or system rat
Procedure: Methods: […] […] The rats were sacrificed 6 hours after the final dose and the hippocampus, raphe and caudate nucleus were dissected and placed in […]® (Qiagen, Valencia, Calif.) for 24 hours. The tissue was then placed in a fresh tube and stored at -80 C. Total RNA was prepared using Trizol® (InVitrogen, Carlsbad, Calif.) using the manufacturer's standard protocol. The total RNA was DNase treated and cDNA was made using the methods described in Example 1 in connection with CA77 cell cDNA preparation.

C[C@@H]1C[C@H]2[C@@H]3CCC4=CC(=O)C=C[C@]4(C)[C@@]3(F)[C@@H](O)C[C@]2(C)[C@@]1(O)C(=O)CO [Dexamethasone, dexamethasone]
Sult1a1 expression in caudate nucleus [1]: drastically upregulated
Sult1a1 expression in raphe nucleus [1]: drastically upregulated
Sult1a1 mRNA in caudate putamen, raphe and hippocampus compared to vehicle controls (Sult1a1; dexamethasone alone): significant increase
Sult1a1 expression in the hippocampus (Sult1a1; in vivo): upregulated
